No constants are given. Whether binding was seen depends on the method and setting. In cells and extracts the contact can be indirect. A yes stands for co-enrichment or nearness to the bait. Other partners may have been found.
Biological target: Flag-Tet (Drosophila) (UniProt M9NEY8)
Assay: affinity purification with mass spectrometry; Flag-Tet expressed in S2 cells; anti-Flag IP overnight at 4 °C; washes with IP buffer (50 mM Tris-HCl pH 7.5, 150 mM NaCl, 0.5% Triton X-100, 1 mM EDTA) and buffers A-D including 0.5 M NaCl; glycine elution; LC-MS

Chains of the proteins cited; added tags and fusions are not shown. Lines headed by an entry give the natural chain unless they say otherwise; changes in a name come on top. A line that says so, or that is headed by a name, gives the form on record, which may keep a tag or linker.
Flag-Tet (M9NEY8, form named): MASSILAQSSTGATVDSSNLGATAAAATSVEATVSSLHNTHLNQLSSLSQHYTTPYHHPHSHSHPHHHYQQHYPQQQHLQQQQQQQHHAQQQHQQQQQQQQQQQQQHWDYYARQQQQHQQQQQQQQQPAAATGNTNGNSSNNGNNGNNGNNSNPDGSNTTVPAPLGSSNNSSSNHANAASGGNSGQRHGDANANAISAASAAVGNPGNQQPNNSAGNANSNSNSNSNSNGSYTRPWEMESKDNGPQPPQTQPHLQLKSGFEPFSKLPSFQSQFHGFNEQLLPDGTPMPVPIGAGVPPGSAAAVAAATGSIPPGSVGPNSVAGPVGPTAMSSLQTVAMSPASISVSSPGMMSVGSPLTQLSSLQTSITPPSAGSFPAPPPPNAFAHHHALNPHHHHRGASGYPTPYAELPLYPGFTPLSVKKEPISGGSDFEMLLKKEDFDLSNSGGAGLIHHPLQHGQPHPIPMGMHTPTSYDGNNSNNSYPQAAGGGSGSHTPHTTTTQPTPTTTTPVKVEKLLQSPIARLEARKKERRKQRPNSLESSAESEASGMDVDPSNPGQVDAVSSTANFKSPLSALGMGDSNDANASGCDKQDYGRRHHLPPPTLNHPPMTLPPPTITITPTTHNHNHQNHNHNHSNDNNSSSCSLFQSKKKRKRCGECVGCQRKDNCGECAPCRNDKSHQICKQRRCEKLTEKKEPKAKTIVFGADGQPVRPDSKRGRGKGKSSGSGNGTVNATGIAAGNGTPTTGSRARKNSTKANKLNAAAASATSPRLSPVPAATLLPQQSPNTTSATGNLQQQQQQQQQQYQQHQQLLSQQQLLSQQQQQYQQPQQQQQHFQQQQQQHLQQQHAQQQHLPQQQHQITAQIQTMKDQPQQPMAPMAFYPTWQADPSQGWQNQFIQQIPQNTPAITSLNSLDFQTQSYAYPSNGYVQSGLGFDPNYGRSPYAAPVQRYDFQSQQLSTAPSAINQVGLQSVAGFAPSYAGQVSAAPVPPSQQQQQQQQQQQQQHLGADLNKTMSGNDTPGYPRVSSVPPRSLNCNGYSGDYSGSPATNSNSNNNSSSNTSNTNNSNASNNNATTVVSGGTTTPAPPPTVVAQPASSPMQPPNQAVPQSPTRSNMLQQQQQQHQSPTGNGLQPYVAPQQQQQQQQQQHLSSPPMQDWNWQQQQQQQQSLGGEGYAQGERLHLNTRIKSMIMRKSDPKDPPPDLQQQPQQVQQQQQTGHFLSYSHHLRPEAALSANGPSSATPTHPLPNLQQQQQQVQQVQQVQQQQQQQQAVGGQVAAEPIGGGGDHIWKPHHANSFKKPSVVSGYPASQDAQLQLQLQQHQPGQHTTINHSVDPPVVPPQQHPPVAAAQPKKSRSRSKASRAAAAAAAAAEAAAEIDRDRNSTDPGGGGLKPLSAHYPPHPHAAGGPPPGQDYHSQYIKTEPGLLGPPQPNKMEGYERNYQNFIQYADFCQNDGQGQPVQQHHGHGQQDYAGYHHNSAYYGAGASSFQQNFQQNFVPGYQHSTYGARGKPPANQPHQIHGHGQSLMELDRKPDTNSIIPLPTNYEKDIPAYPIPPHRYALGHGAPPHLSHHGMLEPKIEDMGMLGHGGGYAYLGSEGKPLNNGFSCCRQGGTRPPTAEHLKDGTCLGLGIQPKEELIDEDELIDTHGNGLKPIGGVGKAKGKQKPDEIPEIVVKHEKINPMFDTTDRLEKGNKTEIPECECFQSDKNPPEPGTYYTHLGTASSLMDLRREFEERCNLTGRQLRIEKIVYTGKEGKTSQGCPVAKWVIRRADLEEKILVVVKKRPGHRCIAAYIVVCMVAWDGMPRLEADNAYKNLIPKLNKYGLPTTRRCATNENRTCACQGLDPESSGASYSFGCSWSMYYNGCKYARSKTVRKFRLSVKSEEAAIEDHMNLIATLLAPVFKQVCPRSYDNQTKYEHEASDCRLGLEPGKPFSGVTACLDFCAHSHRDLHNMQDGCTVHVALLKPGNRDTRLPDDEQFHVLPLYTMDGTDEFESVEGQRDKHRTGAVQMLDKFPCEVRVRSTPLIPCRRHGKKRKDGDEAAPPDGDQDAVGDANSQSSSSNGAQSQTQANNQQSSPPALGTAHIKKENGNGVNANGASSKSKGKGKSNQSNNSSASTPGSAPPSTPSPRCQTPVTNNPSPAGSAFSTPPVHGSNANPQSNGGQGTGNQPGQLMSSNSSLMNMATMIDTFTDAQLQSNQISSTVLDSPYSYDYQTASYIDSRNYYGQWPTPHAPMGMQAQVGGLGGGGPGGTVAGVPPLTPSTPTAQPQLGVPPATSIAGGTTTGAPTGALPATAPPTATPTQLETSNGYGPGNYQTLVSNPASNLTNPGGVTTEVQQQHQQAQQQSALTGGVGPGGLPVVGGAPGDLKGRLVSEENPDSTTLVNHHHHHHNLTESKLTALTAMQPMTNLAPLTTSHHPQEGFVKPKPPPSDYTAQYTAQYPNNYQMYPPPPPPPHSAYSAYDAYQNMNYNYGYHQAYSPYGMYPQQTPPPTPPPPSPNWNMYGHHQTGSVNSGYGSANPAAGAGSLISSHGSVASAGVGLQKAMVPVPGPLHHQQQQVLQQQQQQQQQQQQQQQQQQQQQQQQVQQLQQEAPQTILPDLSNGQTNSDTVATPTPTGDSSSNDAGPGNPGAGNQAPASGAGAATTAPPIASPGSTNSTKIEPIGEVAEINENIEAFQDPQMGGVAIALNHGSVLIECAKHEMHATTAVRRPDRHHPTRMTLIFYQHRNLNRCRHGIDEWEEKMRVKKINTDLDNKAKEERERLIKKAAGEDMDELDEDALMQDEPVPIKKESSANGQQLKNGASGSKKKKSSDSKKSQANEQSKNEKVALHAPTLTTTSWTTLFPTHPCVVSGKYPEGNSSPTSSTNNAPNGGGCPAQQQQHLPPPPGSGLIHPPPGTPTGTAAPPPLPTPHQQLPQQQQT

B1: Strep-Bap55 (natural protein, Drosophila, UniProt Q7K012 1-425, looked up)
chain: MSGGTMLYGGDEIGALVFDPGHHSLRVGYAQEDSPKAEIPSVVGIGAAPETNLDPETKTDNNATPNNADQRKFYVDTNYVTVPRSNMEVQTYMKDGMIDNWDLFEKVIDYAYANVIQSEPEYHPVLFSEASWNVRNNREKLTELMFEKYNVPAFFLVKNAVLAAFSSGRATALVVDSGATHTSAVPVHEGYVLSQAVVKSPLGGDFLSRQCRQHLEKHGIDLSPVYKIASKDVVKERDNGRFTLRKLPENLTQSWQNYMLQLMMQDFQMNVLQVLENPFDERVAAQIPTVHYEFPNGYHQDFGSERFKIAESLFDNAMLGAGQLASTSVGMCDADVRLSLFGSVVVTGGNTLLQGFPERLNRDLQLRAPSNTRLKMISANGSVERRFGAWIGGSILASIGTFQQMWISSQEYEEAGKSQVERKCP
notes: Drosophila Bap55, full-length Bap55-PA; pFastBac-HTB vectors usually also add an N-terminal His6 tag; source: insect cells (baculovirus), purified (Strep-Tactin XT, Superdex 200)
binding: binds
